According to PubChem BioAssay AID2417 (National Center for Advancing Translational Sciences (NCATS), 2010):
Screen size: about 140,000 compounds; about 4,300 (3.1%) were called active. Inconclusive results, whose numbers are uncertain, are shown with a selection of clear calls.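 Rule for the calls: active = readout at or below -70, meaning at least 70% loss of cells showing the perinucleolar compartment, a nuclear body marking cancer cells; inconclusive = readout between -30 and a set limit; inactive = the rest.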

Assay: High Content Assay for Compounds that inhibit the Assembly of the Perinucleolar Compartment;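 note: plate controls were DMSO wells for no effect and camptothecin positive control wells for full effect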
Conditions: PC3M PTB-GFP, PNC prevalence imaging, 16 h; at 10 µM; stronger effect = lower value
Method in brief: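 Read-out is percentage of cells bearing a perinucleolar compartment, from automated 20x imaging of fixed, Hoechst-stained PC3M PTB-GFP cells. Cells were seeded 4 h, then exposed 16 h to compound (23 nl of library stock) in duplicate plates.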
With COc1ccc(Oc2nnnn2-c2ccccc2)cc1 the activity change (PNC), negative = inhibition was inconclusive: -48.9%. With Cc1ccc(-c2nnc(N(C)C(=O)c3ccncc3)s2)cn1 the activity change (PNC), negative = inhibition was inconclusive: -59.3%. For CC(C)Oc1ccccc1C1CC(=O)Nc2cc3c(cc21)OCCO3 (stereo not given), the activity change (PNC), negative = inhibition was active: -96.9%. In the case of O=C(NC(=S)NC(=O)c1ccccc1F)c1ccccc1F, the activity change (PNC), negative = inhibition is reported as inactive: 8.53%. With CCCOC(=O)CSC1=C(C#N)C(c2ccccc2OC)C(C#N)C(=O)N1 (stereo not given) the activity change (PNC), negative = inhibition was active: -97.4%. For O=C(CSc1nnc(-c2ccc(O)cc2)n1-c1ccccc1)CC(=O)Nc1ccccc1, the activity change (PNC), negative = inhibition was inconclusive: -61.1%. With COc1ccc(N2CC(C)Cn3c2nc2c3c(=O)[nH]c(=O)n2C)cc1 (stereo not given) the activity change (PNC), negative = inhibition was inactive: 21.5%. In the case of CCOc1ccc(/C=N/n2cnnc2)cc1, the activity change (PNC), negative = inhibition is reported as inconclusive: -36.3%. For CCCCNc1c2c3c(cccc3n(C)c1=O)C(=O)c1ccccc1-2, the activity change (PNC), negative = inhibition was inconclusive: -34.3%. In the case of CCOc1ccc(Nc2c3c(nc4ncnn24)CC(C)CC3)cc1 (stereo not given), the activity change (PNC), negative = inhibition is reported as inconclusive: -41.4%. With NC(=O)N/N=C/c1ccc(N2CCOCC2)s1 the activity change (PNC), negative = inhibition was inconclusive: -32%. With O=C1c2ccccc2C(=O)N1CCc1nc2ccccc2c(=O)n1-c1ccccn1 the activity change (PNC), negative = inhibition was inconclusive: -40.1%. In the case of CCOC(=O)C1CCN(C(=O)CN(c2cccc(C(F)(F)F)c2)S(C)(=O)=O)CC1, the activity change (PNC), negative = inhibition is reported as inconclusive: -30.4%. In the case of CCOC(=O)c1ccc(NC(=O)C23CCC(C)(C(=O)O2)C3(C)C)cc1 (stereo not given), the activity change (PNC), negative = inhibition is reported as inconclusive: -33.4%. For Cc1ccc(C)n1CCN1CCN(C(=O)c2ccco2)CC1, the activity change (PNC), negative = inhibition was inconclusive: -33.7%. With COc1cc(/C=C2\SC(=N)N(c3ccc4c(c3)OCO4)C2=O)cc(OC)c1O the activity change (PNC), negative = inhibition was inactive: -8.82%. For CC1CCN(S(=O)(=O)c2ccc(Cl)cc2Br)CC1, the activity change (PNC), negative = inhibition was inconclusive: -58.7%. In the case of CCC(=O)Nc1cccc(C(=O)c2ccccc2)c1, the activity change (PNC), negative = inhibition is reported as inactive: 9.06%. In the case of CC1SC(c2cccc(Cl)c2)NC1=O (stereo not given), the activity change (PNC), negative = inhibition is reported as inactive: -10.3%. In the case of Cc1onc(-c2ccccc2Cl)c1C(=O)Nc1cccc(-c2nc3ncccn3c2C)c1, the activity change (PNC), negative = inhibition is reported as inactive: -9.59%. For Cc1cc(C)c2c(CC(=O)Nc3nccs3)coc2c1, the activity change (PNC), negative = inhibition was inconclusive: -48.8%. In the case of CCOC(=O)c1ccc(Nc2nnc(C(C)(C)C)c(=O)[nH]2)cc1, the activity change (PNC), negative = inhibition is reported as inactive: 19.5%. For Fc1ccc(-c2nnc(CSc3nnc(-c4cccs4)o3)o2)cc1, the activity change (PNC), negative = inhibition was inconclusive: -38.1%. For CN=C(Nc1cc(C)nn1-c1ccccc1)c1ccccc1, the activity change (PNC), negative = inhibition was inconclusive: -46.1%. With CN(C)CCNS(=O)(=O)c1ccc(N2CCN(c3ccc(F)cc3)CC2)c([N+](=O)[O-])c1 the activity change (PNC), negative = inhibition was inactive: 13.1%. With CC(C)(C)NC(=O)/C=C/c1cccc(C(F)(F)F)c1 the activity change (PNC), negative = inhibition was inconclusive: -42.9%. For COc1ccc(/C=C2\CCCC(C(=O)C(F)(F)F)=C2O)cc1, the activity change (PNC), negative = inhibition was inactive: 10.7%. For CC[C@H](C)[C@H](NC(=O)c1ccc(Cl)cc1)C(=O)OCC(=O)c1ccc2c(c1)NC(=O)CO2, the activity change (PNC), negative = inhibition was inactive: 18.3%. In the case of CC(=O)Nc1cc2c(nc1C)nc(C)n2Cc1ccc(Br)cc1, the activity change (PNC), negative = inhibition is reported as inconclusive: -49.9%. In the case of O=C(O)c1cccc(N2C(=O)Nc3ccccc3N2O)c1, the activity change (PNC), negative = inhibition is reported as inconclusive: -37.6%. In the case of C=CCSc1nc(-c2ccc3c(c2)OCO3)cc(C(F)(F)F)c1C#N, the activity change (PNC), negative = inhibition is reported as active: -96%. For CS(=O)(=O)N(Cc1ccc(C(=O)NCc2ccco2)cc1)c1ccccc1, the activity change (PNC), negative = inhibition was inactive: 77.2%. In the case of O=C(/C=C/Nc1cccc(F)c1)c1ccco1, the activity change (PNC), negative = inhibition is reported as inactive: 28.3%. In the case of Cc1nc2nc(-c3ccccc3)[nH]n2c(=O)c1C, the activity change (PNC), negative = inhibition is reported as inconclusive: -67.1%. With CCOC(=O)CC1C(=O)NCCN1S(=O)(=O)c1cc(Cl)c(Cl)cc1Cl (stereo not given) the activity change (PNC), negative = inhibition was active: -98.3%. For Cc1ccc(NC2=C(CC(=O)O)C(c3ccccc3)N(c3ccc(C)cc3)C2=O)cc1 (stereo not given), the activity change (PNC), negative = inhibition was inactive: 50.2%. In the case of CCOC(=O)C1CCN(Cc2ccc(OC)cc2OC)CC1, the activity change (PNC), negative = inhibition is reported as inactive: 172%. With CCCCSC(=O)Nc1ccccc1 the activity change (PNC), negative = inhibition was inconclusive: -30.3%. With CCn1c(NC(C)=O)nc2ccccc21 the activity change (PNC), negative = inhibition was inconclusive: -46.3%. In the case of Cc1c(C(=O)N2CCN(CCc3ccccc3)CC2)oc2ccccc12, the activity change (PNC), negative = inhibition is reported as inconclusive: -54%. With CCOC(=O)c1ccc(CNCc2ccc(C)cc2)cc1 the activity change (PNC), negative = inhibition was inactive: 5.01%. For O=S(=O)(NCCSc1ccc(Cl)cc1)c1ccc2c(c1)OCCO2, the activity change (PNC), negative = inhibition was inactive: -3.98%. With COc1ccc(Cn2nnnc2C(c2cc3cc(C)cc(C)c3[nH]c2=O)N2CCOCC2)cc1 (stereo not given) the activity change (PNC), negative = inhibition was inconclusive: -45.6%. With Cc1ccc(C(=O)COC(=O)c2cn(-c3ccccc3)nc2-c2ccccc2)cc1[N+](=O)[O-] the activity change (PNC), negative = inhibition was inconclusive: -61.2%. For CCOC(=O)C(NC(=O)CC)(Nc1ccccc1OC)C(F)(F)F (stereo not given), the activity change (PNC), negative = inhibition was inconclusive: -36.3%. In the case of N#Cc1cn(CCOc2ccc(F)cc2)c2ccccc12, the activity change (PNC), negative = inhibition is reported as inconclusive: -70.3%. For Clc1cccc(CSc2nnc(-c3ccccn3)n2Cc2ccco2)c1, the activity change (PNC), negative = inhibition was inconclusive: -36.9%. For c1cc(-c2noc(CC3CCCCC3)n2)ccn1, the activity change (PNC), negative = inhibition was inconclusive: -50.3%. In the case of CCOC(=O)c1[nH]c2c(c1-c1ccc(OC)cc1)C(=O)CC(c1ccc(OC)c(OC)c1)C2 (stereo not given), the activity change (PNC), negative = inhibition is reported as inactive: 40%. With c1ccc2c(c1)c1c3n2CCNC3CCC1 (stereo not given) the activity change (PNC), negative = inhibition was inconclusive: -39.3%. In the case of O=C(NCCCN1CCC(Cc2ccccc2)CC1)C1CC(=O)N(C2CCCC2)C1 (stereo not given), the activity change (PNC), negative = inhibition is reported as inconclusive: -44.5%. In the case of N#Cc1cc2c(nc1SCC(N)=O)CCCCC2, the activity change (PNC), negative = inhibition is reported as inactive: 23.2%. For Cn1cc([N+](=O)[O-])c(C(=O)Nc2cnn(Cc3ccc(F)cc3)c2)n1, the activity change (PNC), negative = inhibition was inactive: -17%. With CCc1cc(C(=O)NCCN(C)C)cs1 the activity change (PNC), negative = inhibition was inconclusive: -30.9%. In the case of COc1ccccc1N1CCN(C(=O)CCn2c(=O)[nH]c3ccccc3c2=O)CC1, the activity change (PNC), negative = inhibition is reported as active: -107%. For CN(C)S(=O)(=O)N1CCN(CC(O)COc2ccc3cc(Br)ccc3c2)CC1 (stereo not given), the activity change (PNC), negative = inhibition was inconclusive: -37%. With Cc1cc(C(=O)OCC(=O)NC2CCS(=O)(=O)C2)c(C)n1-c1ccccc1 (stereo not given) the activity change (PNC), negative = inhibition was inconclusive: -42.9%. With COCCOC(=O)c1c(C)oc2ccc(OCc3ccccc3)cc12 the activity change (PNC), negative = inhibition was active: -114%. For CCn1cc([N+](=O)[O-])nc1C, the activity change (PNC), negative = inhibition was inconclusive: -51.3%. For Cc1cc(C)n(Cc2ccccc2)c(=O)c1S(=O)(=O)c1ccccc1, the activity change (PNC), negative = inhibition was inactive: 30.3%.
